According to PubChem BioAssay AID493014 (National Center for Advancing Translational Sciences (NCATS), 2011):
Some of the results follow. The main result of the screen is listed elsewhere. These columns were measured beside it and carry no call. The list favours compounds with an active or inconclusive main result. Words in brackets tell the shape of the fitted curve; partial curves, single points and poor fits give uncertain potencies.

Test: qHTS Assay to Find Inhibitors of Chronic Active B-Cell Receptor Signaling
Conditions: ABC-DLBCL IkBa-CBG/CBR reporter, luminescence ratio (green luciferase fused to IkBa over red control in TMD8 lymphoma cells), 4 h
Method in brief: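 Concentration-response series (up to 46 uM) were applied to TMD8 dual-reporter cells for 4 h at 37C with doxycycline. Green/red ratio, after filter-overlap correction, defined %Activity; red signal alone was normalised to basal cells and zero luminescence.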

[1] = measured here: IkBa-CBG green luminescence
[2] = measured here: CBR red luminescence, cell number

**Q.** For `OC[C@H]1O[C@@H](n2cnc3c(Nc4ccccc4)ncnc32)[C@H](O)[C@@H]1O`, which AC50 [1] is on record?
**A.** 3.98 µM [falling, partial curve]

**Q.** For `C=CCn1c(CNC(=O)c2ccco2)nnc1SCC(=O)Nc1cccc(Br)c1`, which AC50 [2] is on record?
**A.** 29.1 µM [falling, single point]

**Q.** For `CCN(CC(=O)Nc1c(F)cccc1F)C(=O)CCC(=O)c1ccc(C)cc1`, which AC50 [2] is on record?
**A.** 32.6 µM [rising, partial curve, poor fit]

**Q.** With `C=C(C)C(=O)Nc1cccc(C2=NOC3(C2)C[C@H](C(N)=O)N(C(=O)CC)C3)c1` (some centres not stated) as the compound, how does the AC50 [2] read?
**A.** 35.5 µM [rising, single point]

**Q.** For `Cc1ccc(-n2nc3c(c2NC(=O)c2c(-c4ccccc4Cl)noc2C)CSC3)cc1`, which AC50 [2] is on record?
**A.** 2.24 µM [rising, partial curve, poor fit]

**Q.** Which AC50 [2] does the source give for `Nc1nonc1C(=O)NCCNCc1ccccc1OCc1ccccc1F` here?
**A.** 11.2 µM [falling, partial curve, poor fit]

**Q.** Which AC50 [2] does the source give for `Clc1ccccc1OCCCOc1cccc2cccnc12` here?
**A.** 3.16 µM [rising, single point]

**Q.** Which AC50 [2] does the source give for `COC(=O)CSc1nc2c(c(C3CC=CCC3)c1C#N)CCC2` (configuration not stated) here?
**A.** 16.4 µM [rising, single point]

**Q.** With `COc1ccc(-c2nc(CN(C)C(C)c3ccon3)c(C)o2)c(C)c1C` (configuration not stated) as the compound, how does the AC50 [2] read?
**A.** 2 µM [rising, partial curve]

**Q.** With `COc1ccc(C(=O)N/C(=C\c2ccc3c(c2)OCO3)C(=O)NCCc2nc3ccccc3[nH]2)cc1` as the compound, how does the AC50 [2] read?
**A.** 29.1 µM [falling, single point]

**Q.** With `COC(=O)c1ccccc1NC(=S)NC(NC(=O)COc1ccccc1)C(Cl)(Cl)Cl` (configuration not stated) as the compound, how does the AC50 [2] read?
**A.** 35.5 µM [falling, single point]

**Q.** Which AC50 [2] does the source give for `CN(C)CCCNC(CC(=O)Nc1cccc([N+](=O)[O-])c1)C(=O)O` (configuration not stated) here?
**A.** 0.58 µM [falling, full curve]

**Q.** With `CC(OC(=O)/C=C/c1ccccc1)C(=O)Nc1cccc(C#N)c1` (configuration not stated) as the compound, how does the AC50 [1] read?
**A.** 29.1 µM [falling, single point]

**Q.** Which AC50 [2] does the source give for `Cc1[nH]c2ccc(-c3nnc(SCC(=O)c4ccc(F)cc4)o3)cc2c1C` here?
**A.** 22.4 µM [rising, single point]

**Q.** Which AC50 [2] does the source give for `CCCc1c(C(=O)Nc2ccc(F)cc2F)cnn1-c1ccccc1` here?
**A.** 8.91 µM [falling, partial curve]

**Q.** With `Cc1ccc(Sc2nc3ccc(C)cn3c(=O)c2/C=N/O)cc1` as the compound, how does the AC50 [2] read?
**A.** 8.91 µM [falling, partial curve]

**Q.** With `Cc1ccc(C)c(OCCC(=O)OCC(=O)N2CCN(S(=O)(=O)c3ccc(Cl)cc3)CC2)c1` as the compound, how does the AC50 [2] read?
**A.** 18.4 µM [falling, single point]

**Q.** What about the AC50 [1] of the same compound?
**A.** 13 µM [rising, partial curve, poor fit]

**Q.** For `CCCOc1cccc(C(=O)Nc2ccc(CN3CCOCC3)cc2)c1`, which AC50 [2] is on record?
**A.** 12.6 µM [falling, single point]

**Q.** For `CC(C)(C)c1ccc(C(=O)Cn2cnnc2C#N)cc1`, which AC50 [2] is on record?
**A.** 3.16 µM [falling, full curve]

**Q.** For `O=C1c2cccnc2C(Nc2ccc(Cl)cc2)N1Cc1cccs1` (configuration not stated), which AC50 [2] is on record?
**A.** 10 µM [falling, partial curve, poor fit]

**Q.** Which AC50 [2] does the source give for `O=C(NCCC(=O)N1CCN(c2ncccn2)CC1)c1ccccc1` here?
**A.** 16.4 µM [falling, single point]

**Q.** And the AC50 [1]?
**A.** 25.9 µM [rising, partial curve, poor fit]

**Q.** For `COc1cc(/C=N/Nc2nc(N3CCCC3)nc(N3CCCC3)n2)ccc1O`, which AC50 [2] is on record?
**A.** 29.1 µM [falling, single point]

**Q.** Which AC50 [2] does the source give for `COCc1ccc(CN2CCC(C(=O)Nc3cccc(-c4cccc(Cl)c4)c3)CC2)o1` here?
**A.** 11.2 µM [falling, partial curve]

**Q.** With `COc1ccc(CCNc2ncnc3cc(OC)c(OC)cc23)cc1OC` as the compound, how does the AC50 [2] read?
**A.** 10 µM [falling, single point]

**Q.** For `COc1ccccc1C(=O)C1CCCN(Cc2cn[nH]c2C2CCCCC2)C1` (configuration not stated), which AC50 [2] is on record?
**A.** 20 µM [falling, single point]

**Q.** For `COc1cccc(NC(=O)CN(C)C(=O)CC(C)c2ccccc2)c1` (configuration not stated), which AC50 [2] is on record?
**A.** 2.51 µM [falling, partial curve, poor fit]

**Q.** With `O=C(c1ccco1)N1CCN(C(=O)c2cnn3c(C(F)(F)F)cc(-c4cccs4)nc23)CC1` as the compound, how does the AC50 [2] read?
**A.** 2.06 µM [rising, full curve, poor fit]

**Q.** Which AC50 [2] does the source give for `COc1ccc(N/C(=N\c2nc(C)cc(C)n2)NC(=O)C(C)C)cc1OC` here?
**A.** 5.01 µM [rising, full curve, poor fit]

**Q.** For `O=C(COC(=O)c1cc(Cl)ccc1Cl)NC1CCCC1`, which AC50 [2] is on record?
**A.** 3.55 µM [rising, full curve, poor fit]

**Q.** For `CCOC(=O)c1cnc(-n2nc(C)cc2C)nc1Oc1ccccc1F`, which AC50 [2] is on record?
**A.** 1.78 µM [rising, full curve, poor fit]

**Q.** With `Cc1ccc(NC(=O)COc2ccc3oc4c(c3c2)CCCC4)nc1` as the compound, how does the AC50 [2] read?
**A.** 32.6 µM [rising, single point]

**Q.** Which AC50 [2] does the source give for `CCOC(=O)CSC1=C(C#N)C(c2ccc(C)s2)CC(=O)N1` (configuration not stated) here?
**A.** 6.31 µM [rising, partial curve, poor fit]

**Q.** What about the AC50 [1] of the same compound?
**A.** 15.8 µM [falling, partial curve]

**Q.** Which AC50 [2] does the source give for `CCOC(=O)C1CCCN(C(=O)c2cc3c(=O)n(C)c4ccccc4c3n2C)C1` (configuration not stated) here?
**A.** 5.17 µM [falling, single point]

**Q.** With `O=C1CC(N2CCOCC2)C(=O)N1CCc1ccccc1` (configuration not stated) as the compound, how does the AC50 [2] read?
**A.** 31.6 µM [rising, single point]

**Q.** With `COc1cc(S(=O)(=O)NCC2OCCc3ccccc32)ccc1-n1cnnn1` (configuration not stated) as the compound, how does the AC50 [2] read?
**A.** 29.1 µM [falling, single point]

**Q.** Which AC50 [2] does the source give for `O=C(Nc1ccc(N2CCOCC2)nc1N1CCOCC1)c1cccc(C(F)(F)F)c1` here?
**A.** 14.1 µM [falling, partial curve, poor fit]

**Q.** Which AC50 [2] does the source give for `Cc1ccc(OCc2ccc(C(=O)N3CCCC3)o2)cc1C` here?
**A.** 25.1 µM [falling, single point]

**Q.** With `CCN1CCN(c2ccc(S(=O)(=O)N3CCCCC3)cc2NC(=O)Cc2ccc(Cl)c(Cl)c2)CC1` as the compound, how does the AC50 [2] read?
**A.** 29.1 µM [falling, single point]

**Q.** Which AC50 [2] does the source give for `NS(=O)(=O)c1ccc(CCNC(=O)C(=O)C2C(=O)Nc3ccccc32)cc1` (configuration not stated) here?
**A.** 35.5 µM [falling, single point]
